According to patent US20120208291A1:
Results are given in words; binding and its absence hold for the method and conditions named. Some binding calls cover weakened binding; strength is not graded here. Tags and fused reporters may be left off the sequences shown.

Molecular target: T1, immobilized synaptobrevin protein, SNB(1-94) thioester (UniProt O02495)
T1 sequence (C-terminal thioester reacted with surface-tethered cysteine, looked up): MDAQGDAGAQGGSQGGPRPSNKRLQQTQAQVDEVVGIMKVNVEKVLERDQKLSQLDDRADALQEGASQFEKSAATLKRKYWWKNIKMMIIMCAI
Test: single-molecule TIRF microscopy, GFP-syntaxin in solution on immobilized synaptobrevin

- binding: binds
B1: GFP labeled syntaxin (protein, UniProt O16000 1-265, looked up, not shown: large carriers)
chain: MTKDRLSALKAAQSEDEQDDDMHMDTGNAQYMEEFFEQVEEIRGSVDIIANNVEEVKKKHSAILSNPVNDQKTKEELDELMAVIKRAANKVRGKLKLIENAIDHDEQGAGNADLRIRKTQHSTLSRRFVEVMTDYNKTQTDYRERCKGRIQRQLDIAGKQVGDEDLEEMIESGNPGVFTQGIITDTQQAKQTLADIEARHNDIMKLESSIRELHDMFMDMAMLVESQGEMVDRIEYNVEHAKEFVDRAVADTKKAVQYQSKARRK
